Source: PMC4107866

Amino acid sequences for entries named in this document (tags omitted). Residues count along the entry.
UniProt Q15746: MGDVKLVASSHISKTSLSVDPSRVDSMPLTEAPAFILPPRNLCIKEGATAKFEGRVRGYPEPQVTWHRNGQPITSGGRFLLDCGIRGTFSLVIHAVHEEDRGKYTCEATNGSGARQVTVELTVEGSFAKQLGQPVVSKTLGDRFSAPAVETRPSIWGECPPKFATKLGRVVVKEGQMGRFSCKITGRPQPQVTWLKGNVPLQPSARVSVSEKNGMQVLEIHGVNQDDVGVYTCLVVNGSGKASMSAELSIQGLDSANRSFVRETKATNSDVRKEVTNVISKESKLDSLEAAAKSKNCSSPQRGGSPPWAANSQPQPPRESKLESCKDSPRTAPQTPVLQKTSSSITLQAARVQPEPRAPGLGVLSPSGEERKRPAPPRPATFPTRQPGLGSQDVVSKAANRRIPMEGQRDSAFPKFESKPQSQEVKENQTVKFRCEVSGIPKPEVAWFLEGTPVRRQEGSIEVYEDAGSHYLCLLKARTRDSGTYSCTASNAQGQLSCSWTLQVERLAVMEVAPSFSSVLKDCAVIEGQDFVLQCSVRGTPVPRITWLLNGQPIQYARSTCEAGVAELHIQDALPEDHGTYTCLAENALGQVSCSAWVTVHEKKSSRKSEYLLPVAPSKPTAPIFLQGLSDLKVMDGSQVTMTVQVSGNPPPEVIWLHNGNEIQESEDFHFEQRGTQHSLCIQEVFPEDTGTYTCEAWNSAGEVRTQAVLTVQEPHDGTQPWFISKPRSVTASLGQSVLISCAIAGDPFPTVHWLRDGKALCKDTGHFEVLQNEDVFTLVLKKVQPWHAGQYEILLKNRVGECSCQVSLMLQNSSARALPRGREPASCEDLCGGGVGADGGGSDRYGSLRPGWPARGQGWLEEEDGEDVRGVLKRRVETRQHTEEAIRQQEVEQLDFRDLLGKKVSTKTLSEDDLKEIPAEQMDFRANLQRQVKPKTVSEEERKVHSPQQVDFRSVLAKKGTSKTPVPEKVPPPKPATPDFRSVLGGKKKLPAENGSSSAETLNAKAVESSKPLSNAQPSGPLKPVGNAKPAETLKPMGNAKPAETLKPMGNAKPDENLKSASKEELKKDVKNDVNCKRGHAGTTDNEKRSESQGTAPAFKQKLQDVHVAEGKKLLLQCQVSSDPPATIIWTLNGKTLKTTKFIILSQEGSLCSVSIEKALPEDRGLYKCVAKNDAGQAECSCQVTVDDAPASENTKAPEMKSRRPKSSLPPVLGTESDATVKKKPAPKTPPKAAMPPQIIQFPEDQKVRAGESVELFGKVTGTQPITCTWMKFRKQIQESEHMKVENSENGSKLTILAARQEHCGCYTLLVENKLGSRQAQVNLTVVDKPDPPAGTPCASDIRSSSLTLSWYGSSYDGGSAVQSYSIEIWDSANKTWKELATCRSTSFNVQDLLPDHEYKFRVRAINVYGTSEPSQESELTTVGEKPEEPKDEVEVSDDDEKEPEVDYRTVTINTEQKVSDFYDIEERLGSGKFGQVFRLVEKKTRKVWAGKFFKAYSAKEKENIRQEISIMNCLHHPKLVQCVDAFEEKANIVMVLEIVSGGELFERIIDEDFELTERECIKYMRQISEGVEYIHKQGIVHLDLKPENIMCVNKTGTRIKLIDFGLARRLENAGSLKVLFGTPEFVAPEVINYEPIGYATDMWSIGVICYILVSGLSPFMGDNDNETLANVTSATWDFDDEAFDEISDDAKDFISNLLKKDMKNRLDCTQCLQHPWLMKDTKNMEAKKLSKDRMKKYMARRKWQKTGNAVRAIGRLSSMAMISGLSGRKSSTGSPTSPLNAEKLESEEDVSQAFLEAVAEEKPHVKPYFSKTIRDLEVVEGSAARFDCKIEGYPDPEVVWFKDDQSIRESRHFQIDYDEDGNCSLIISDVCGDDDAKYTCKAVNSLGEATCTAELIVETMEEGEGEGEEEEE
UniProt O60449, residues 28-1722: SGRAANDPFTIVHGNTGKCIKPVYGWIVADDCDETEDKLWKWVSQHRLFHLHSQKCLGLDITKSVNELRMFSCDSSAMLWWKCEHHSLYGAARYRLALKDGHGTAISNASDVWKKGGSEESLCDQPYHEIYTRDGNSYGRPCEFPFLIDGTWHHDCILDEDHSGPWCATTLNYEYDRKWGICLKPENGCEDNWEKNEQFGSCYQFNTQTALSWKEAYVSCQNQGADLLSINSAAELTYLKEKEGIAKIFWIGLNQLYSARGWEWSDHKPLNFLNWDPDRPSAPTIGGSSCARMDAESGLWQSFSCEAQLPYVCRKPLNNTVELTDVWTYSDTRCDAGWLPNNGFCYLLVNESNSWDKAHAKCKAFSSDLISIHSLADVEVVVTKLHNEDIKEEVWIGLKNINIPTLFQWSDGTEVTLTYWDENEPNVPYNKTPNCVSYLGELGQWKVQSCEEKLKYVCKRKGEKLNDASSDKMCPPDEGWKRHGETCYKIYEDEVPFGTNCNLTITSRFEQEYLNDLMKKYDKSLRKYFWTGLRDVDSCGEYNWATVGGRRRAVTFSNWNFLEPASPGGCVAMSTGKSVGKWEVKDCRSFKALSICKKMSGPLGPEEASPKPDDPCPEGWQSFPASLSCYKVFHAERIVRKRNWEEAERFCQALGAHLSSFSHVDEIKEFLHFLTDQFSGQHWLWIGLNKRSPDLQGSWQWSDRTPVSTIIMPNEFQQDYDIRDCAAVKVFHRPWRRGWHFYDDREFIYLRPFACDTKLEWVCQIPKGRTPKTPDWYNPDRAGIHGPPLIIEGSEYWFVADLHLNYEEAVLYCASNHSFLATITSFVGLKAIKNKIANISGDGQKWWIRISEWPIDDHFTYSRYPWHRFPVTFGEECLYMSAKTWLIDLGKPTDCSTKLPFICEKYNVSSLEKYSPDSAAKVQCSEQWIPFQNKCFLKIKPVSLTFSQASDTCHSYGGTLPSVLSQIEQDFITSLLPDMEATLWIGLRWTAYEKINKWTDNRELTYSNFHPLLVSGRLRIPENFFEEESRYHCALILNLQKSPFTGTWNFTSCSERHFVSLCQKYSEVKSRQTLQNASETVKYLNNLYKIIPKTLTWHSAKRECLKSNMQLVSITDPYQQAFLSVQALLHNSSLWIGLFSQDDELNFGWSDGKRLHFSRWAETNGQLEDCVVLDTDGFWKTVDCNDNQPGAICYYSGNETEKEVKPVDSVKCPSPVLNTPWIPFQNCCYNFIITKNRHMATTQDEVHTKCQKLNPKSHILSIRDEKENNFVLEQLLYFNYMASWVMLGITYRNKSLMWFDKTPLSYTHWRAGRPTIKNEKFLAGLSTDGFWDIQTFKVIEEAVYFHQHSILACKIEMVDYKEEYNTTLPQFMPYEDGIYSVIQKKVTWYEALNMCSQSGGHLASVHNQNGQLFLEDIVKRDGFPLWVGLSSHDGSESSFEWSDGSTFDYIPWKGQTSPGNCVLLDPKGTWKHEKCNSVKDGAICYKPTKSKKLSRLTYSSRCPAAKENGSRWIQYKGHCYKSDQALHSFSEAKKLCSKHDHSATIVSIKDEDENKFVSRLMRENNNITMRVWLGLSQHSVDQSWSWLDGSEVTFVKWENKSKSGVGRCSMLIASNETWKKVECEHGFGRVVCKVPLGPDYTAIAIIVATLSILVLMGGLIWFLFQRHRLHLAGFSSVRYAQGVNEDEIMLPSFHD
UniProt O75449: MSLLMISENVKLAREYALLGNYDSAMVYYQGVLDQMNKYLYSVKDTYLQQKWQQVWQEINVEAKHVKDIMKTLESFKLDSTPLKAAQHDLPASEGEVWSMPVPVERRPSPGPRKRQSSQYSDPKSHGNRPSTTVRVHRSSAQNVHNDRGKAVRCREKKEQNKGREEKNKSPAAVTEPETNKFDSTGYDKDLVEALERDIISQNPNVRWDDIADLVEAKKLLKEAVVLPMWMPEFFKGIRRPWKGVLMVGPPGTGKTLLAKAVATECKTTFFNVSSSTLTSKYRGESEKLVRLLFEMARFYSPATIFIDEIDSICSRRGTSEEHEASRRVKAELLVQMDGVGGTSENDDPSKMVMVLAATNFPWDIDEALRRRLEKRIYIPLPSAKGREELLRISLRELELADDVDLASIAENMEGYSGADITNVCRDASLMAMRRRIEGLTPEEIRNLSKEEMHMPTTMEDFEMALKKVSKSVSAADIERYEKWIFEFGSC

Molecular target: 3XFLAG-TEV-CBP-Cul3 (human) (UniProt Q13618)
Assay: affinity purification with mass spectrometry; tandem affinity purification of 3XFLAG-TEV-CBP-Cul3 from lysate of transfected HEK293 cells (RIPA buffer): anti-FLAG M2 beads, TEV cleavage, calmodulin beads, elution with EGTA; MudPIT LC/MS-MS; proteins also found with 3XFLAG-TEV-CBP-actin removed

| Substance | binding |
| --- | --- |
| Endothelial differentiation, sphingolipid G-protein-coupled receptor, 1 (from UniProt P21453 1-382) | binds |
| Long myosin light chain kinase (from UniProt Q15746 1-1914) (enzyme) | binds |
| Lymphocyte antigen 75 (from UniProt O60449-1 28-1722) | binds |
| Nedd8 (from UniProt Q15843 1-76) | binds |
| Nesprin-1 (from UniProt Q8NF91 1-8797) | binds |
| Rb1-inducible coiled coil protein 1 (from UniProt Q8TDY2-1 1-1594) | binds |
| Thyroid hormone receptor interactor 11 (from UniProt Q15643-1 1-1979) | binds |
| p60/katanin (from UniProt O75449 1-491) | binds |

No constants are given. Whether binding was seen depends on the method and setting. In cells and extracts the contact can be indirect. Here binding means that the protein was enriched with, or labelled near, the bait; the list need not be complete.
